Measurements reported in PubChem BioAssay AID1159578 (Peter MacCallum Cancer Centre, 2015)
The whole screen tested about 18,000 reagents; this is a random part of them. Of all reagents, about 1,030 (5.7%) were called active. 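Inactive calls also include pools with fewer than 3300 nuclei, whose migration was not assessed.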 Raw values are not corrected between plates. Reagent sequences are not shown.

- Screen: 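Knock-downs that alter how fast lymphatic endothelial cells migrate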 (primary screen)
- Cell system: human lymphatic endothelial cells
- Reagent: siRNA pool against human genes, 40 nM
- Timing: 48 h after transfection
- Detection: 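Cells stained with dye and imaged after a scratch; covered wound area and nuclei counted, duplicates averaged, migration set against mock wells and turned into a robust z-score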
- Direction: migration robust z-score: higher = faster migration into the scratch; migration relative to mock: higher = more scratch area covered than mock; nuclei per well: higher = more cells in the well
- Rule for the call: 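Migration changed when robust z exceeds 2 or falls below -2 and mean nuclei number is at least 3300; otherwise not called changed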
- Calls: active = migration changed; inactive = no migration change, or too few cells

| target gene | migration robust z-score | migration class with cell-count check | migration relative to mock | nuclei per well, duplicate mean | activity call |
| --- | --- | --- | --- | --- | --- |
| DRC2 (GeneID 85478) | 2.27 | migration z above 2; enough cells | 1.46 | 6906 | active |
| HIVEP1 (GeneID 3096) | -0.42 | migration z between -2 and 2; enough cells | 0.73 | 5555 | inactive |
| SDR42E1 (GeneID 93517) | 1.04 | migration z between -2 and 2; enough cells | 1 | 6140 | inactive |
| AKR7L (GeneID 246181) | -0.35 | migration z between -2 and 2; enough cells | 0.8 | 6072 | inactive |
| SPRY2 (GeneID 10253) | -0.72 | migration z between -2 and 2; enough cells | 0.7 | 5700 | inactive |
| SF3B6 (GeneID 51639) | 2.29 | migration z above 2; enough cells | 1.48 | 5819 | active |
| THOC5 (GeneID 8563) | -0.74 | migration z between -2 and 2; enough cells | 0.7 | 5735 | inactive |
| LOC642678 (retired record) (GeneID 642678) | 0.02 | migration z between -2 and 2; enough cells | 0.81 | 5562 | inactive |
| TDO2 (GeneID 6999) | 0.7 | migration z between -2 and 2; enough cells | 0.94 | 5532 | inactive |
| TREX1 (GeneID 11277) | 1.12 | migration z between -2 and 2; enough cells | 1.02 | 5796 | inactive |
| TRIOBP (GeneID 11078) | 1.08 | migration z between -2 and 2; enough cells | 1.17 | 6183 | inactive |
| FOXA3 (GeneID 3171) | 0.52 | migration z between -2 and 2; enough cells | 0.9 | 5768 | inactive |
| GLDN (GeneID 342035) | 0.46 | migration z between -2 and 2; enough cells | 1 | 5267 | inactive |
| LIG4 (GeneID 3981) | -1.2 | migration z between -2 and 2; enough cells | 0.57 | 5952 | inactive |
| HMGN3 (GeneID 9324) | 0.17 | migration z between -2 and 2; enough cells | 0.93 | 5929 | inactive |
| AVPR1B (GeneID 553) | -1.35 | migration z between -2 and 2; enough cells | 0.54 | 5818 | inactive |
| B3GAT1 (GeneID 27087) | -0.9 | migration z between -2 and 2; enough cells | 0.63 | 5068 | inactive |
| MAGED2 (GeneID 10916) | 0.06 | migration z between -2 and 2; enough cells | 0.9 | 5952 | inactive |
| OR52A1 (GeneID 23538) | 0.26 | migration z between -2 and 2; enough cells | 0.96 | 6381 | inactive |
| GLT8D2 (GeneID 83468) | 0.03 | migration z between -2 and 2; enough cells | 0.9 | 6774 | inactive |
| ZAP70 (GeneID 7535) | -0.76 | migration z between -2 and 2; enough cells | 0.66 | 3604 | inactive |
| ZNF529 (GeneID 57711) | -1.2 | migration z between -2 and 2; enough cells | 0.58 | 4196 | inactive |
| SLBP (GeneID 7884) | -1.08 | migration z between -2 and 2; enough cells | 0.6 | 4651 | inactive |
| ACSS3 (GeneID 79611) | -0.76 | migration z between -2 and 2; enough cells | 0.69 | 6316 | inactive |
| SELENOI (GeneID 85465) | -1.73 | migration z between -2 and 2; enough cells | 0.47 | 5900 | inactive |
| FZD6 (GeneID 8323) | 0.78 | migration z between -2 and 2; enough cells | 0.96 | 6564 | inactive |
| ADAMTS4 (GeneID 9507) | -1.45 | migration z between -2 and 2; enough cells | 0.52 | 5438 | inactive |
| TUBB4A (GeneID 10382) | -2.28 | under 3300 nuclei; migration not judged | 0.29 | 3208 | inactive |
| PRODH (GeneID 5625) | -0.44 | migration z between -2 and 2; enough cells | 0.72 | 4277 | inactive |
| TPSD1 (GeneID 23430) | 0.78 | migration z between -2 and 2; enough cells | 0.96 | 6292 | inactive |
| UPF3A (GeneID 65110) | 2.67 | migration z above 2; enough cells | 1.58 | 6618 | active |
| DNAAF1 (GeneID 123872) | 0.02 | migration z between -2 and 2; enough cells | 0.89 | 7030 | inactive |
| MED1 (GeneID 5469) | 0.18 | migration z between -2 and 2; enough cells | 0.84 | 6210 | inactive |
| VCAM1 (GeneID 7412) | 0.12 | migration z between -2 and 2; enough cells | 0.92 | 6568 | inactive |
| TRIM38 (GeneID 10475) | 1.92 | migration z between -2 and 2; enough cells | 1.17 | 6452 | inactive |
| APIP (GeneID 51074) | 1.17 | migration z between -2 and 2; enough cells | 1.19 | 5657 | inactive |
| TIPRL (GeneID 261726) | -0.19 | migration z between -2 and 2; enough cells | 0.84 | 4686 | inactive |
| MTCL2 (GeneID 140710) | 0.34 | migration z between -2 and 2; enough cells | 0.97 | 4754 | inactive |
| CATSPER1 (GeneID 117144) | 0.57 | migration z between -2 and 2; enough cells | 0.92 | 5706 | inactive |
| RPS14 (GeneID 6208) | 0.8 | migration z between -2 and 2; enough cells | 1.1 | 4148 | inactive |
| STAT5B (GeneID 6777) | 0.94 | migration z between -2 and 2; enough cells | 0.98 | 6330 | inactive |
| C1orf116 (GeneID 79098) | 0.18 | migration z between -2 and 2; enough cells | 0.93 | 5493 | inactive |
| RXFP1 (GeneID 59350) | 1.25 | migration z between -2 and 2; enough cells | 1.04 | 6224 | inactive |
| LIPT1 (GeneID 51601) | -0.36 | migration z between -2 and 2; enough cells | 0.74 | 5616 | inactive |
| CHST10 (GeneID 9486) | 0.08 | migration z between -2 and 2; enough cells | 0.82 | 5460 | inactive |
| PDZD4 (GeneID 57595) | -0.75 | migration z between -2 and 2; enough cells | 0.69 | 6656 | inactive |
| CSTF3 (GeneID 1479) | -0.94 | migration z between -2 and 2; enough cells | 0.64 | 5387 | inactive |
| DNAH6 (GeneID 1768) | 0.22 | migration z between -2 and 2; enough cells | 0.94 | 6350 | inactive |
| B3GALT2 (GeneID 8707) | -0.02 | migration z between -2 and 2; enough cells | 0.8 | 4986 | inactive |
| KLHDC2 (GeneID 23588) | 1.08 | migration z between -2 and 2; enough cells | 1.17 | 5144 | inactive |
| CCDC85B (GeneID 11007) | -1.11 | migration z between -2 and 2; enough cells | 0.6 | 6090 | inactive |
| TSC2 (GeneID 7249) | -0.78 | migration z between -2 and 2; enough cells | 0.66 | 4010 | inactive |
| TNKS2 (GeneID 80351) | 0.18 | migration z between -2 and 2; enough cells | 0.84 | 6396 | inactive |
| SLC67A2 (GeneID 84804) | 0.51 | migration z between -2 and 2; enough cells | 1.02 | 4800 | inactive |
| RAET1E (GeneID 135250) | -0.38 | migration z between -2 and 2; enough cells | 0.78 | 6169 | inactive |
| MMP28 (GeneID 79148) | -0.08 | migration z between -2 and 2; enough cells | 0.79 | 4836 | inactive |
| TMEM266 (GeneID 123591) | 1.8 | migration z between -2 and 2; enough cells | 1.35 | 5599 | inactive |
